The record followed here is paper PMC12579238.

For the assay, the target named is T1, CLN7 (human (endogenous in SH-SY5Y)) (UniProt Q8NHS3).
T1 sequence: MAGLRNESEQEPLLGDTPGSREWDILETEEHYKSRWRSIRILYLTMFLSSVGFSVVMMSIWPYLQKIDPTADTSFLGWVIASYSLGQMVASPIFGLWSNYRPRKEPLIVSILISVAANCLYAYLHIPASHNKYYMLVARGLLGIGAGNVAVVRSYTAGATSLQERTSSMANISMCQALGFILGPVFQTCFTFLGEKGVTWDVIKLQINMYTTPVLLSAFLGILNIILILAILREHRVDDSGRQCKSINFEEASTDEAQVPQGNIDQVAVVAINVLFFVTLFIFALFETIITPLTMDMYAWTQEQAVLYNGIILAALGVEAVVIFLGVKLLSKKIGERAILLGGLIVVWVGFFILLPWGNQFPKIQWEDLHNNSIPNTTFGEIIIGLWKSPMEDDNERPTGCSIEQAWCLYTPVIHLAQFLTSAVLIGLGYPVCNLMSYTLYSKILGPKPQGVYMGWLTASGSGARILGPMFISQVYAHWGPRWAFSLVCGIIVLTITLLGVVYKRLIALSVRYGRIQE
The experiment in a line: affinity purification with mass spectrometry; endogenous CLN7 immunoprecipitated from 2.5 mg SH-SY5Y lysate with a polyclonal anti-CLN7 antibody raised against L9 (351-421aa, Proteintech) on G-sepharose beads; IgG as non-specific binding control; 4 independent replicates; cells under steady state culture conditions.

No constants are given. Whether binding was seen depends on the method and setting. Binding seen in cells or lysates may run through a third protein. A yes stands for co-enrichment or nearness to the bait. Other partners may have been found.

B1: VPS16 (protein, UniProt Q9H269 1-839)
chain: MDCYTANWNPLGDSAFYRKYELYSMDWDLKEELRDCLVAAAPYGGPIALLRNPWRKEKAASVRPVLDIYSASGMPLASLLWKSGPVVSLGWSAEEELLCVQEDGAVLVYGLHGDFRRHFSMGNEVLQNRVLDARIFHTEFGSGVAILTGAHRFTLSANVGDLKLRRMPEVPGLQSAPSCWTVLCQDRVAHILLAVGPDLYLLDHAACSAVTPPGLAPGVSSFLQMAVSFTYRHLALFTDTGYIWMGTASLKEKLCEFNCNIRAPPKQMVWCSRPRSKERAVVVAWERRLMVVGDAPESIQFVLDEDSYLVPELDGVRIFSRSTHEFLHEVPAASEEIFKIASMAPGALLLEAQKEYEKESQKADEYLREIQELGQLTQAVQQCIEAAGHEHQPDMQKSLLRAASFGKCFLDRFPPDSFVHMCQDLRVLNAVRDYHIGIPLTYSQYKQLTIQVLLDRLVLRRLYPLAIQICEYLRLPEVQGVSRILAHWACYKVQQKDVSDEDVARAINQKLGDTPGVSYSDIAARAYGCGRTELAIKLLEYEPRSGEQVPLLLKMKRSKLALSKAIESGDTDLVFTVLLHLKNELNRGDFFMTLRNQPMALSLYRQFCKHQELETLKDLYNQDDNHQELGSFHIRASYAAEERIEGRVAALQTAADAFYKAKNEFAAKATEDQMRLLRLQRRLEDELGGQFLDLSLHDTVTTLILGGHNKRAEQLARDFRIPDKRLWWLKLTALADLEDWEELEKFSKSKKSPIGYLPFVEICMKQHNKYEAKKYASRVGPEQKVKALLLVGDVAQAADVAIEHRNEAELSLVLSHCTGATDGATADKIQRARAQAQKK
As to B1, the binding result is listed as “binds”.

B2: VPS18 (protein, UniProt Q9P253 1-973)
chain: MASILDEYENSLSRSAVLQPGCPSVGIPHSGYVNAQLEKEVPIFTKQRIDFTPSERITSLVVSSNQLCMSLGKDTLLRIDLGKANEPNHVELGRKDDAKVHKMFLDHTGSHLLIALSSTEVLYVNRNGQKVRPLARWKGQLVESVGWNKALGTESSTGPILVGTAQGHIFEAELSASEGGLFGPAPDLYFRPLYVLNEEGGPAPVCSLEAERGPDGRSFVIATTRQRLFQFIGRAAEGAEAQGFSGLFAAYTDHPPPFREFPSNLGYSELAFYTPKLRSAPRAFAWMMGDGVLYGALDCGRPDSLLSEERVWEYPEGVGPGASPPLAIVLTQFHFLLLLADRVEAVCTLTGQVVLRDHFLEKFGPLKHMVKDSSTGQLWAYTERAVFRYHVQREARDVWRTYLDMNRFDLAKEYCRERPDCLDTVLAREADFCFRQRRYLESARCYALTQSYFEEIALKFLEARQEEALAEFLQRKLASLKPAERTQATLLTTWLTELYLSRLGALQGDPEALTLYRETKECFRTFLSSPRHKEWLFASRASIHELLASHGDTEHMVYFAVIMQDYERVVAYHCQHEAYEEALAVLARHRDPQLFYKFSPILIRHIPRQLVDAWIEMGSRLDARQLIPALVNYSQGGEVQQVSQAIRYMEFCVNVLGETEQAIHNYLLSLYARGRPDSLLAYLEQAGASPHRVHYDLKYALRLCAEHGHHRACVHVYKVLELYEEAVDLALQVDVDLAKQCADLPEEDEELRKKLWLKIARHVVQEEEDVQTAMACLASCPLLKIEDVLPFFPDFVTIDHFKEAICSSLKAYNHHIQELQREMEEATASAQRIRRDLQELRGRYGTVEPQDKCATCDFPLLNRPFYLFLCGHMFHADCLLQAVRPGLPAYKQARLEELQRKLGAAPPPAKGSARAKEAEGGAATAGPSREQLKADLDELVAAECVYCGELMIRSIDRPFIDPQRYEEEQLSWL
B2: the binding result was “binds”.

B3: CAMK4 (protein, UniProt Q16566 1-473)
chain: MLKVTVPSCSASSCSSVTASAAPGTASLVPDYWIDGSNRDALSDFFEVESELGRGATSIVYRCKQKGTQKPYALKVLKKTVDKKIVRTEIGVLLRLSHPNIIKLKEIFETPTEISLVLELVTGGELFDRIVEKGYYSERDAADAVKQILEAVAYLHENGIVHRDLKPENLLYATPAPDAPLKIADFGLSKIVEHQVLMKTVCGTPGYCAPEILRGCAYGPEVDMWSVGIITYILLCGFEPFYDERGDQFMFRRILNCEYYFISPWWDEVSLNAKDLVRKLIVLDPKKRLTTFQALQHPWVTGKAANFVHMDTAQKKLQEFNARRKLKAAVKAVVASSRLGSASSSHGSIQESHKASRDPSPIQDGNEDMKAIPEGEKIQGDGAQAAVKGAQAELMKVQALEKVKGADINAEEAPKMVPKAVEDGIKVADLELEEGLAEEKLKTVEEAAAPREGQGSSAVGFEVPQQDVILPEY
As for B3, the binding result is “binds”.

B4: TSR1 (protein, UniProt Q2NL82 1-804)
chain: MAAHRPGPLKQQNKAHKGGRHRGRGSAQRDGKGRLALKTLSKKVRKELSRVDQRHRASQLRKQKKEAVLAEKRQLGGKDGPPHQVLVVPLHSRISLPEAMQLLQDRDTGTVHLNELGNTQNFMLLCPRLKHRWFFTSARPGDLHVVLDMAKVADTILFLLDPLEGWDSTGDYCLSCLFAQGLPTYTLAVQGISGLPLKKQIDTRKKLSKAVEKRFPHDKLLLLDTQQEAGMLLRQLANQKQQHLAFRDRRAYLFAHAVDFVPSEENNLVGTLKISGYVRGQTLNVNRLLHIVGYGDFQMKQIDAPGDPFPLNPRGIKPQKDPDMAMEICATDAVDDMEEGLKVLMKADPGRQESLQAEVIPDPMEGEQTWPTEEELSEAKDFLKESSKVVKKVPKGTSSYQAEWILDGGSQSGGEGDEYEYDDMEHEDFMEEESQDESSEEEEEYETMTIGESVHDDLYDKKVDEEAEAKMLEKYKQERLEEMFPDEVDTPRDVAARIRFQKYRGLKSFRTSPWDPKENLPQDYARIFQFQNFTNTRKSIFKEVEEKEVEGAEVGWYVTLHVSEVPVSVVECFRQGTPLIAFSLLPHEQKMSVLNMVVRRDPGNTEPVKAKEELIFHCGFRRFRASPLFSQHTAADKHKLQRFLTADMALVATVYAPITFPPASVLLFKQKSNGMHSLIATGHLMSVDPDRMVIKRVVLSGHPFKIFTKMAVVRYMFFNREDVLWFKPVELRTKWGRRGHIKEPLGTHGHMKCSFDGKLKSQDTVLMNLYKRVFPKWTYDPYVPEPVPWLKSEISSTVPQGGME
Take B4: the binding result is listed as “binds”.

B5: TSC1 (protein, UniProt Q92574 1-1164)
chain: MAQQANVGELLAMLDSPMLGVRDDVTAVFKENLNSDRGPMLVNTLVDYYLETSSQPALHILTTLQEPHDKHLLDRINEYVGKAATRLSILSLLGHVIRLQPSWKHKLSQAPLLPSLLKCLKMDTDVVVLTTGVLVLITMLPMIPQSGKQHLLDFFDIFGRLSSWCLKKPGHVAEVYLVHLHASVYALFHRLYGMYPCNFVSFLRSHYSMKENLETFEEVVKPMMEHVRIHPELVTGSKDHELDPRRWKRLETHDVVIECAKISLDPTEASYEDGYSVSHQISARFPHRSADVTTSPYADTQNSYGCATSTPYSTSRLMLLNMPGQLPQTLSSPSTRLITEPPQATLWSPSMVCGMTTPPTSPGNVPPDLSHPYSKVFGTTAGGKGTPLGTPATSPPPAPLCHSDDYVHISLPQATVTPPRKEERMDSARPCLHRQHHLLNDRGSEEPPGSKGSVTLSDLPGFLGDLASEEDSIEKDKEEAAISRELSEITTAEAEPVVPRGGFDSPFYRDSLPGSQRKTHSAASSSQGASVNPEPLHSSLDKLGPDTPKQAFTPIDLPCGSADESPAGDRECQTSLETSIFTPSPCKIPPPTRVGFGSGQPPPYDHLFEVALPKTAHHFVIRKTEELLKKAKGNTEEDGVPSTSPMEVLDRLIQQGADAHSKELNKLPLPSKSVDWTHFGGSPPSDEIRTLRDQLLLLHNQLLYERFKRQQHALRNRRLLRKVIKAAALEEHNAAMKDQLKLQEKDIQMWKVSLQKEQARYNQLQEQRDTMVTKLHSQIRQLQHDREEFYNQSQELQTKLEDCRNMIAELRIELKKANNKVCHTELLLSQVSQKLSNSESVQQQMEFLNRQLLVLGEVNELYLEQLQNKHSDTTKEVEMMKAAYRKELEKNRSHVLQQTQRLDTSQKRILELESHLAKKDHLLLEQKKYLEDVKLQARGQLQAAESRYEAQKRITQVFELEILDLYGRLEKDGLLKKLEEEKAEAAEAAEERLDCCNDGCSDSMVGHNEEASGHNGETKTPRPSSARGSSGSRGGGGSSSSSSELSTPEKPPHQRAGPFSSRWETTMGEASASIPTTVGSLPSSKSFLGMKARELFRNKSESQCDEDGMTSSLSESLKTELGKDLGVEAKIPLNLDGPHPSPPTPDSVGQLHIMDYNETHHEHS
Consider B5, for which the binding result is listed as “binds”.

B6: UTP18 (protein, UniProt Q9Y5J1 1-556)
chain: MPPERRRRMKLDRRTGAKPKRKPGMRPDWKAGAGPGGPPQKPAPSSQRKPPARPSAAAAAIAVAAAEEERRLRQRNRLRLEEDKPAVERCLEELVFGDVENDEDALLRRLRGPRVQEHEDSGDSEVENEAKGNFPPQKKPVWVDEEDEDEEMVDMMNNRFRKDMMKNASESKLSKDNLKKRLKEEFQHAMGGVPAWAETTKRKTSSDDESEEDEDDLLQRTGNFISTSTSLPRGILKMKNCQHANAERPTVARISSVQFHPGAQIVMVAGLDNAVSLFQVDGKTNPKIQSIYLERFPIFKACFSANGEEVLATSTHSKVLYVYDMLAGKLIPVHQVRGLKEKIVRSFEVSPDGSFLLINGIAGYLHLLAMKTKELIGSMKINGRVAASTFSSDSKKVYASSGDGEVYVWDVNSRKCLNRFVDEGSLYGLSIATSRNGQYVACGSNCGVVNIYNQDSCLQETNPKPIKAIMNLVTGVTSLTFNPTTEILAIASEKMKEAVRLVHLPSCTVFSNFPVIKNKNISHVHTMDFSPRSGYFALGNEKGKALMYRLHHYSDF
For the molecule B6, the binding entry is recorded as “binds”.

B7: USP39 (protein, UniProt Q53GS9 1-565)
chain: MSGRSKRESRGSTRGKRESESRGSSGRVKRERDREREPEAASSRGSPVRVKREFEPASAREAPASVVPFVRVKREREVDEDSEPEREVRAKNGRVDSEDRRSRHCPYLDTINRSVLDFDFEKLCSISLSHINAYACLVCGKYFQGRGLKSHAYIHSVQFSHHVFLNLHTLKFYCLPDNYEIIDSSLEDITYVLKPTFTKQQIANLDKQAKLSRAYDGTTYLPGIVGLNNIKANDYANAVLQALSNVPPLRNYFLEEDNYKNIKRPPGDIMFLLVQRFGELMRKLWNPRNFKAHVSPHEMLQAVVLCSKKTFQITKQGDGVDFLSWFLNALHSALGGTKKKKKTIVTDVFQGSMRIFTKKLPHPDLPAEEKEQLLHNDEYQETMVESTFMYLTLDLPTAPLYKDEKEQLIIPQVPLFNILAKFNGITEKEYKTYKENFLKRFQLTKLPPYLIFCIKRFTKNNFFVEKNPTIVNFPITNVDLREYLSEEVQAVHKNTTYDLIANIVHDGKPSEGSYRIHVLHHGTGKWYELQDLQVTDILPQMITLSEAYIQIWKRRDNDETNQQGA
B7: the binding result is listed as “binds”.
